Experimental data: PubChem BioAssay AID1259260 (Sanger Institute, 2017)

Assay: 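Kinome knock-down with three anchor drugs to find synergy partners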 (primary screen)
System: human NCI-H716 colorectal cancer cells
Reagent: siRNA pool against human genes
Conditions: anchor drugs BYL719 (alpelisib) 1 µM, cetuximab 5 µg/ml or trametinib 10 nM, each at a dose chosen to harm viability only mildly; DMSO vehicle for the knock-down-alone arm
Measurement: 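Mean viability over replicates against non-targeting siRNA, robust z-score without drug, and per-drug synergy comparing combined with single treatments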
Direction: viability robust z-score, siRNA alone: higher = more surviving cells; below -3 called essential; viability vs control, no drug: higher = more surviving cells
Units: viability vs control, no drug in fraction of control
Hit rule: 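a knock-down counts as essential if its no-drug robust z-score is lower than -3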
Meaning of the calls: active = essential (knock-down alone lowers viability); inactive = no essential effect
The deposit covers 794 reagents; this is a part drawn at random. 13 of them (1.6%) count as active. 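Calls reflect only knock-down without drug; synergy above 0.15 was grouped apart and does not change the call.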 No viability above 1 is reported: the scale is capped. Not all columns of the deposit are shown. The record does not give: the amount of reagent, the time to read-out.

Against STK36, the values are viability robust z-score, siRNA alone 0.602; viability vs control, no drug 1; inactive. Silencing of ERN2 came out at: viability robust z-score, siRNA alone -2.64; viability vs control, no drug 0.663; inactive. For DGKH the deposit lists viability robust z-score, siRNA alone -0.749; viability vs control, no drug 0.86; inactive. Depletion of FGFR1 resulted in: viability robust z-score, siRNA alone 0.602; viability vs control, no drug 1; inactive. NME7 scored viability robust z-score, siRNA alone 0.602; viability vs control, no drug 1; inactive. Against KHK, the values are viability robust z-score, siRNA alone -2.44; viability vs control, no drug 0.684; inactive.

STK17A gave viability robust z-score, siRNA alone 0.602; viability vs control, no drug 1; inactive. After knock-down of AKT1, the screen gave viability robust z-score, siRNA alone 0.602; viability vs control, no drug 1; inactive. PLK3 gave viability robust z-score, siRNA alone 0.602; viability vs control, no drug 1; inactive. After knock-down of LMBR1, the screen gave viability robust z-score, siRNA alone 0.602; viability vs control, no drug 1; inactive. Silencing of CDK5R2 came out at: viability robust z-score, siRNA alone -0.236; viability vs control, no drug 0.913; inactive. With knock-down of MAPK13 the results were viability robust z-score, siRNA alone -0.484; viability vs control, no drug 0.887; inactive.

Silencing of TCF7L2 came out at: viability robust z-score, siRNA alone 0.602; viability vs control, no drug 1; inactive. Silencing of MUSK gave: viability robust z-score, siRNA alone -1.66; viability vs control, no drug 0.764; inactive.

4 entries already listed, arranged by “viability robust z-score, siRNA alone”, lowest first:
MAPK13 → viability robust z-score, siRNA alone: -0.484; viability vs control, no drug: 0.887; outcome: inactive
CDK5R2 → viability robust z-score, siRNA alone: -0.236; viability vs control, no drug: 0.913; outcome: inactive
PLK3 → viability robust z-score, siRNA alone: 0.602; viability vs control, no drug: 1; outcome: inactive
LMBR1 → viability robust z-score, siRNA alone: 0.602; viability vs control, no drug: 1; outcome: inactive

Continued.
Silencing of BCOR gave: viability robust z-score, siRNA alone 0.602; viability vs control, no drug 1; inactive. Against MAPK9 the deposit lists viability robust z-score, siRNA alone 0.602; viability vs control, no drug 1; inactive. With knock-down of PNKP, the screen gave viability robust z-score, siRNA alone -0.612; viability vs control, no drug 0.874; inactive. For EPHA3 the deposit lists viability robust z-score, siRNA alone 0.602; viability vs control, no drug 1; inactive. Against IGF1R, the entry reads viability robust z-score, siRNA alone -1.81; viability vs control, no drug 0.75; inactive. For CLSPN, the values are viability robust z-score, siRNA alone -0.386; viability vs control, no drug 0.897; inactive.

DGKG showed viability robust z-score, siRNA alone -1.14; viability vs control, no drug 0.819; inactive. Against GRK1 the deposit lists viability robust z-score, siRNA alone 0.602; viability vs control, no drug 1; inactive. CHD4 showed viability robust z-score, siRNA alone -0.428; viability vs control, no drug 0.893; inactive. DIS3 scored viability robust z-score, siRNA alone 0.16; viability vs control, no drug 0.954; inactive. Depletion of STK40 gave: viability robust z-score, siRNA alone 0.157; viability vs control, no drug 0.954; inactive. TTBK1 scored viability robust z-score, siRNA alone -0.674; viability vs control, no drug 0.867; inactive.

Silencing of MARK2 resulted in: viability robust z-score, siRNA alone -0.882; viability vs control, no drug 0.846; inactive. Against CDK11B the deposit lists viability robust z-score, siRNA alone 0.00197; viability vs control, no drug 0.938; inactive.
